# Data taken from PMC11335210.
# No constants are given. Whether binding was seen depends on the method and setting. In cells and extracts the contact can be indirect. Where a sequence is shown, tags or fusion partners need not be part of it.
# Target: T1, human PKP4 N-terminally tagged with EGFP (EGFP-PKP4-WT) (human) (UniProt Q99569)
# T1 sequence: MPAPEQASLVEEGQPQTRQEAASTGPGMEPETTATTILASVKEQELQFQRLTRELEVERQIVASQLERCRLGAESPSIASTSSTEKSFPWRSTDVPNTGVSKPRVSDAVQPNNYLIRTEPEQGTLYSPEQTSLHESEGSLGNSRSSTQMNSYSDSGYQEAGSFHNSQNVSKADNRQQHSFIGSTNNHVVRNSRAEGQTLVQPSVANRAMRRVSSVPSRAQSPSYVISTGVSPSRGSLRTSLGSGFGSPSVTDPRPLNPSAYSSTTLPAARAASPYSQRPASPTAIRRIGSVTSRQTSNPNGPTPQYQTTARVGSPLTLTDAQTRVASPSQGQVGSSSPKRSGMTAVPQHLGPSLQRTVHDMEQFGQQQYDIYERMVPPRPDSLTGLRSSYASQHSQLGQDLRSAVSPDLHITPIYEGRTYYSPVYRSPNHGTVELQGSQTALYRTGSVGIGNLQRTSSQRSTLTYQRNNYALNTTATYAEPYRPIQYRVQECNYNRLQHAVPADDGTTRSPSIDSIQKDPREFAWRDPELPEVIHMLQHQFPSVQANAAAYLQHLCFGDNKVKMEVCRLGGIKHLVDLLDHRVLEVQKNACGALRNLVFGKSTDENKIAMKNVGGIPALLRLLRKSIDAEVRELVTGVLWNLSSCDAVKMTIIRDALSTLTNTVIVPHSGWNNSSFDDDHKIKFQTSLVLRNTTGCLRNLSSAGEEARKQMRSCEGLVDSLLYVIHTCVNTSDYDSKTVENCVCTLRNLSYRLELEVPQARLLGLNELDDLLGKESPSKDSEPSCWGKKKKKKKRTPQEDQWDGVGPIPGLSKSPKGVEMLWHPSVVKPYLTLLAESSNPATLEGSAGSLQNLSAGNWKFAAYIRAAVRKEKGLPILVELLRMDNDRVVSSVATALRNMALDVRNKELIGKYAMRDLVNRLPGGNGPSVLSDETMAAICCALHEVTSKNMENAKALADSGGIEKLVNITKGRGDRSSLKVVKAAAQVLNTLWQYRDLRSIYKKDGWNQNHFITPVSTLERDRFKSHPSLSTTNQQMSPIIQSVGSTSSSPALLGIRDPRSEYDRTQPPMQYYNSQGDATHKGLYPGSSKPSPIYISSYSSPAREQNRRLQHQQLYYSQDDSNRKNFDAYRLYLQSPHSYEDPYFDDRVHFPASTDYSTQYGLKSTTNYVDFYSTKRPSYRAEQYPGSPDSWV
# Assay: co-IP; GFP-Trap Agarose on lysates of PKP4-KO + GFP-PKP4 (Rescue) keratinocytes, WT + GFP cells as control; IP buffer 20 mM Tris-HCl pH 7.5, 137 mM NaCl, 2 mM EDTA, 10% glycerol, 1% NP-40; 1 h at 4 °C; western blot
substance,measurement,value
cofilin,binding,no binding
